{
  "source": "PubChem BioAssay AID504444",
  "about": "(National Center for Advancing Translational Sciences (NCATS), 2011)",
  "note": "Out of some 360,000 compounds screened, about 7,500 (2.1%) were called active. The shares of active, inactive and inconclusive entries below differ from those in the screen. The call rests on the fitted dose curve; in most records, active means well fitted inhibition curve with a large enough effect; inconclusive means small, poorly fitted or top-dose-only effect, or effect the other way; inactive means flat fitted curve, though single readings scatter. Potencies beside an inconclusive call are fits to weak or partial responses and may not hold up. On the % scale 0 is the no-effect control and ±100 the full control effect; potency means the concentration at half of the fitted maximal effect.",
  "data": [
    {"experiment": "Nrf2 qHTS screen for inhibitors; further: nearly all actives have a fitted effect of over 60% in size", "conditions": "A549 ARE-Fluc reporter, luciferase luminescence, 18-24 h; activity change, negative = inhibition: at 46 µM (top of the series)", "in_short": "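Quantitative HTS in A549 cells stably bearing an antioxidant response element-firefly luciferase construct. Inhibition of Nrf2-driven transcription was scored by luminescence after 18-24 h of compound exposure at 37 °C.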", "values": [
      {"smiles": "Cc1cc(C)cc(Nc2ncnc3nc[nH]c23)c1", "Potency": "inconclusive: 0.082 µM [activator, full curve, poor fit]"},
      {"smiles": "Cc1cccc(C(=O)NNC(=O)C23CC4CC(CC(C4)C2)C3)c1O", "Potency": "inconclusive: 23.1 µM [falling, partial curve, poor fit]"},
      {"smiles": "Cc1cc(C)c(NC(=O)COC(=O)c2cccc3c2C(=O)c2ccccc2C3=O)c(C)c1", "Potency": "active: 16.4 µM"},
      {"smiles": "O=C(c1ccccc1)N1CC(COc2ccccc2)OC(c2cccnc2)O1", "note": "(centres undefined)", "Potency": "inconclusive: 25.9 µM [activator, single point]"},
      {"smiles": "Cc1ccc(NC(=O)c2oc3ccc(S(=O)(=O)N4CCC5(CC4)OCCO5)cc3c2C)cc1C", "Potency": "inconclusive: 29.1 µM [falling, partial curve, poor fit]"},
      {"smiles": "CC(=O)Nc1ccc(NC(=O)Cc2ccc(-c3ccccc3)cc2)cc1", "activity change, negative = inhibition": "inactive: 1.23%"},
      {"smiles": "COc1ccc(CNC(=O)C[C@H]2C[C@H](C(=O)N3CCCCC3)[C@@]3(CCc4ccccc4)c4[nH]c5cc(-c6ccco6)ccc5c4CCN3C2=O)cc1OC", "Potency": "inconclusive: 23.1 µM [falling, partial curve, poor fit]"},
      {"smiles": "COc1ccc(C(=O)CSc2ncn[nH]2)cc1OC", "Potency": "inconclusive: 20.6 µM [activator, single point]"},
      {"smiles": "COc1cccc(CNC(=O)C2CCN(S(=O)(=O)c3ccc4c(c3)CC(C)N4C(=O)C3CC3)CC2)c1", "note": "(centres undefined)", "Potency": "inconclusive: 23.1 µM [falling, single point]"},
      {"smiles": "O=C(Nc1cccc(S(=O)(=O)N2CCCCC2)c1)c1ccccc1NS(=O)(=O)c1ccc(F)cc1", "Potency": "inconclusive: 18.4 µM [falling, single point]"},
      {"smiles": "Cc1ccc(OCC(=O)Nc2cccc(-c3nc4ccccc4s3)c2)cc1", "Potency": "inconclusive: 5.8 µM [activator, full curve]"},
      {"smiles": "COC(=O)c1ccc(NC(=O)c2ccccc2CC[N+](=O)[O-])cc1", "Potency": "inconclusive: 32.6 µM [falling, single point]"},
      {"smiles": "N/C(=N\\OC(=O)c1cccc2ccccc12)c1ccc(Br)cc1", "Potency": "inconclusive: 20.6 µM [activator, partial curve]"},
      {"smiles": "Cc1c(C(=O)NCc2ccccc2)sc2nc3n(c(=O)c12)CCCCC3", "activity change, negative = inhibition": "inactive: -11.8%"},
      {"smiles": "Cc1ccc(-c2c3c(nc4sc(C(N)=O)c(N)c24)CCC3)cc1", "Potency": "inconclusive: 14.6 µM [falling, partial curve, poor fit]"},
      {"smiles": "NC(=O)COC(=O)c1cccc(S(=O)(=O)N2CCN(c3ccccc3)CC2)c1", "Potency": "inconclusive: 18.4 µM [falling, partial curve, poor fit]"},
      {"smiles": "CCOC(=O)c1ccc(NC(=O)C2CCCN(c3ncnc4onc(-c5ccc(F)cc5)c34)C2)cc1", "note": "(centres undefined)", "Potency": "inconclusive: 25.9 µM [activator, partial curve, poor fit]"},
      {"smiles": "NS(=O)(=O)c1cc(C(=O)OCC(=O)N2CCc3ccccc3C2)ccc1Cl", "Potency": "inconclusive: 0.13 µM [falling, full curve, poor fit]"},
      {"smiles": "O=C(Nc1ccc(Nc2ccccc2)cc1)c1ccc(Cl)cc1[N+](=O)[O-]", "Potency": "inconclusive: 18.4 µM [falling, single point]"},
      {"smiles": "CC(C)(C)c1ccccc1Nc1nc(C#N)nc(NC2CCCC2)n1", "Potency": "inconclusive: 29.1 µM [falling, single point]"},
      {"smiles": "CCOC(=O)c1ccc2nc(C)c(CCC(C)=O)c(Cl)c2c1", "Potency": "inconclusive: 0.651 µM [activator, full curve]"},
      {"smiles": "CN(C(=O)C1CCN(c2ncnc3c2nc2n3CCCCC2)CC1)C1CCCCC1", "Potency": "inconclusive: 23.1 µM [falling, single point]"},
      {"smiles": "CCn1cc2nc(SCC(=O)Nc3ccc(OC)c(OC)c3)n(Cc3ccc(Cl)cc3)c(=O)c2n1", "Potency": "inconclusive: 20.6 µM [falling, partial curve, poor fit]"},
      {"smiles": "CC(=O)c1cccc(NC(=O)C2CCN(C(=O)c3cnn(-c4ccccc4)c3-n3cccc3)CC2)c1", "Potency": "inconclusive: 14.6 µM [activator, partial curve, poor fit]"},
      {"smiles": "Cc1c(C(=O)NCc2ccccc2Cl)sc2nc3n(c(=O)c12)CCCCC3", "Potency": "active: 4.61 µM"},
      {"smiles": "O=C(N/C(=C\\c1cccc([N+](=O)[O-])c1)C(=O)N1CCOCC1)c1ccco1", "Potency": "inconclusive: 4.11 µM [activator, full curve, poor fit]"},
      {"smiles": "CCC1CCC2(CC1)NC(=O)N(CC(=O)Nc1ccc(OC)c(Cl)c1)C2=O", "note": "(centres undefined)", "Potency": "inconclusive: 23.1 µM [activator, partial curve, poor fit]"},
      {"smiles": "CC(=O)/C(=C/Nc1ccc(Oc2ccccc2)cc1)c1ccccc1", "activity change, negative = inhibition": "inactive: -15.1%"},
      {"smiles": "COc1ccc(CCNC(=O)c2nnn(CC(=O)Nc3ccccc3)c2N)cc1OC", "Potency": "inconclusive: 23.1 µM [falling, partial curve]"},
      {"smiles": "CCc1noc(C)c1C(=O)OC(C)C(=O)Nc1ccc(Cl)cn1", "note": "(centres undefined)", "activity change, negative = inhibition": "inactive: 4.65%"},
      {"smiles": "COc1ccc(-c2oc3ncn4nc(-c5ccccc5O)nc4c3c2-c2ccc(OC)cc2)cc1", "activity change, negative = inhibition": "inactive: -6.41%"},
      {"smiles": "c1ccc2c(c1)Cc1cc3ccccc3nc1-2", "Potency": "inconclusive: 10.3 µM [activator, partial curve]"},
      {"smiles": "CCC1CN(C(=O)N2CCC(C(=O)NCc3ccc(N(C)C)cc3)CC2)c2ccccc2O1", "note": "(centres undefined)", "activity change, negative = inhibition": "inactive: -17.2%"},
      {"smiles": "COc1ccc(OCCSc2nnc(CC(=O)Nc3cccc(Cl)c3Cl)n2C)cc1", "Potency": "inconclusive: 20.6 µM [falling, single point]"},
      {"smiles": "Cc1nnc(N2CCC(C(=O)N3CCCCCC3)CC2)c2nn(-c3ccc(Cl)cc3)c(C)c12", "Potency": "inconclusive: 25.9 µM [falling, partial curve, poor fit]"},
      {"smiles": "N#C/C(=C\\c1ccc(-c2cccc(Cl)c2)o1)C(=O)Nc1cccc2cccnc12", "Potency": "inconclusive: 4.61 µM [activator, single point]"},
      {"smiles": "O=C(Nc1ccc(Br)cc1)C1CC(c2c(F)cccc2Cl)=NO1", "note": "(centres undefined)", "Potency": "inconclusive: 25.9 µM [falling, single point]"},
      {"smiles": "O=C(Nc1nc(-c2ccccn2)cs1)C1COc2ccccc2O1", "note": "(centres undefined)", "Potency": "inconclusive: 8.2 µM [falling, partial curve, poor fit]"},
      {"smiles": "Cc1ccc(C(=O)Nc2ccc(F)c(S(=O)(=O)N3CCOCC3)c2)s1", "Potency": "inconclusive: 29.1 µM [falling, single point]"}
    ]}
  ]
}
